Reference: article PMC7862700
Only a part is listed here, and it is no random draw. At the low end of the ranking the order means little.

molecular target: T1, SPDEF (UniProt O95238); assay: DAPPL (digital affinity profiling via proximity ligation, sequencing); conditions: 10 mM Tris-HCl pH 7.5, 50 mM NaCl, 1 mM DTT, 4% glycerol, room temperature, 30 min; GST-TFs on glutathione beads, 16-mer random dsDNA library, 0.1% …; high values mean tight binding; double strand, one strand shown; scale: fold enrichment (6-mer frequency, TF over GST control)
T1 sequence: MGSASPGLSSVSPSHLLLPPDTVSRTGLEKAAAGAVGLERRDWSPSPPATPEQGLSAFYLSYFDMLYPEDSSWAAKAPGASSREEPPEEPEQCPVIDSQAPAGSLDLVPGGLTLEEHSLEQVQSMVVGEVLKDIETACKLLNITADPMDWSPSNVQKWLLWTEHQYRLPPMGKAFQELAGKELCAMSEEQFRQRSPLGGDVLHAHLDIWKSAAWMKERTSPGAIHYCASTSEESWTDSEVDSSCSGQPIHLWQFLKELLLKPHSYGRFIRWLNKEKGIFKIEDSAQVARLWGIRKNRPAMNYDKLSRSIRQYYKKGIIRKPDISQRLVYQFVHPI

Row | Sequence | binding signal
1 | TGCAGA | 1
2 | CATTAT | 0.969
3 | CCAAGA | 0.927
4 | AGAAGA | 0.831
5 | AGTGCC | 0.937
6 | CATCGT | 0.832
7 | AGATCT | 0.914
8 | CCAAGT | 0.919
9 | AGGAAT | 0.768
10 | TCATCG | 0.916
11 | AGAACC | 0.966
12 | AACCGA | 0.933
13 | GTAGAA | 0.901
14 | GAATGG | 0.943
15 | GACCAA | 0.956
16 | TCGAAA | 0.977
17 | AGGGTT | 0.899
18 | AGGGCT | 0.958
19 | TTGAGA | 0.997
20 | ACAGAA | 0.959

Row | Sequence | binding signal
21 | TCCAGA | 0.877
22 | GCCAGA | 0.655
23 | TAGGTA | 1.02
24 | GTGGTC | 0.774
25 | AGATAT | 0.976
26 | GGCTGC | 0.943
27 | AGAAGG | 0.608
28 | TAATCG | 1.05
29 | CAGAAA | 0.906
30 | GTTCAG | 0.944
31 | GAATAG | 1.02
32 | GCTAAC | 0.982
33 | CCCACT | 1.27
34 | GCCGCT | 0.993
35 | GCGATT | 0.838
36 | ACTGAT | 1.1
37 | TATTTA | 1.47
38 | TTGGGA | 0.933
39 | AGACTT | 0.928

Single values from the list:
Value of CCCACT under binding signal: 1.27
Value of TAGGTA under binding signal: 1.02
